Measured values as given in the supplement of paper PMC6078165.
The reference is the same well before dosing, and untreated signal decays as well.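 Labels refer to human fibroblasts, largely primary: uterine (C12385, HUF), lung (H6013), bone (Hs27A), adrenal (HADF), skin (WS1), plus mammary HMF and breast cancer-associated Hs343T. Cancer lines are basal-like or mesenchymal-like triple-negative breast cancer. The paper counts as hits responses shifting over 3x the replicate standard deviation. The tissue of the other fibroblasts is not given here.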

System: HCC1143
Assay: relative JC-1 red fluorescence (viability) vs pre-drug, coculture with fibroblast (fraction); higher = more viable cancer cells
Method: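 JC-1 labelled TNBC cells cocultured 1:1 (1,500 cells each) with CellTrace Violet stained primary or stromal fibroblasts in 384-well plates in FluoroBrite medium, treated with one of 42 anticancer drugs at 0.1, 1, 10 or 100 uM. JC-1 red fluorescence (mitochondrial integrity in cancer cells only) was read by plate reader every 8 h for 72 h. Values are normalised to each well's pre-drug value. The stock of one drug was tenfold lower, so its dose labels may be too high.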

O=C(CCCCCCC(=O)Nc1ccccc1)NO [Vorinostat]
relative JC-1 red fluorescence
Conditions	8 h	16 h	24 h	32 h	40 h	48 h	56 h	64 h	72 h
0.1 µM, coculture fibroblast: C12385	0.842	0.76	0.699	0.633	0.565	0.503	0.46	0.415	0.397
0.1 µM, coculture fibroblast: H6013	0.772	0.693	0.66	0.639	0.569	0.558	0.52	0.498	0.468
0.1 µM, coculture fibroblast: H6019	0.801	0.714	0.661	0.6078	0.5686	0.542	0.497	0.454	0.419
0.1 µM, coculture fibroblast: H6076	0.7928	0.814	0.75	0.6733	0.64	0.617	0.579	0.5509	0.5538
0.1 µM, coculture fibroblast: H6231	0.817	0.837	0.757	0.63	0.668	0.639	0.601	0.569	0.55
0.1 µM, coculture fibroblast: HADF	0.7052	0.6138	0.5748	0.56629	0.4545	0.4229	0.389	0.3635	0.352
0.1 µM, coculture fibroblast: HCFa	0.783	0.708	0.66	0.638	0.545	0.519	0.468	0.428	0.405
0.1 µM, coculture fibroblast: HCPF	0.793	0.79	0.734	0.616	0.63	0.595	0.546	0.51	0.489
0.1 µM, coculture fibroblast: HHSteC	0.83	0.768	0.724	0.686	0.617	0.589	0.543	0.513	0.459
0.1 µM, coculture fibroblast: HMF	0.7831	0.861	0.761	0.618	0.641	0.59	0.523	0.475	0.44
0.1 µM, coculture fibroblast: HPFa	0.8799	0.772	0.722	0.633	0.574	0.536	0.472	0.417	0.379
0.1 µM, coculture fibroblast: HUF	0.846	0.761	0.697	0.627	0.579	0.539	0.495	0.459	0.44
0.1 µM, coculture fibroblast: Hs5	0.828	0.8932	0.828	0.761	0.715	0.677	0.629	0.592	0.566
0.1 µM, coculture fibroblast: Hs27A	0.712	0.6066	0.565	0.57	0.452	0.437	0.387	0.359	0.335
0.1 µM, coculture fibroblast: Hs343T	0.8144	0.856	0.79	0.665	0.654	0.609	0.5572	0.5292	0.498
0.1 µM, coculture fibroblast: WS1	0.80794	0.7231	0.6613	0.57883	0.514	0.469	0.409	0.372	0.346
1 µM, coculture fibroblast: C12385	0.856	0.761	0.67	0.578	0.503	0.447	0.406	0.37	0.361
1 µM, coculture fibroblast: H6013	0.739	0.644	0.58	0.543	0.475	0.466	0.44	0.4276	0.389
1 µM, coculture fibroblast: H6019	0.805	0.725	0.683	0.627	0.599	0.571	0.539	0.511	0.487
1 µM, coculture fibroblast: H6076	0.805	0.808	0.725	0.691	0.638	0.629	0.594	0.574	0.583
1 µM, coculture fibroblast: H6231	0.7826	0.821	0.709	0.544	0.58	0.53	0.492	0.453	0.429
1 µM, coculture fibroblast: HADF	0.7172	0.63	0.5835	0.578	0.4703	0.44064	0.4099	0.3873	0.3703
1 µM, coculture fibroblast: HCFa	0.805	0.717	0.677	0.648	0.582	0.559	0.515	0.487	0.438
1 µM, coculture fibroblast: HCPF	0.775	0.813	0.721	0.604	0.625	0.586	0.533	0.498	0.486
1 µM, coculture fibroblast: HHSteC	0.787	0.684	0.616	0.5591	0.474	0.443	0.395	0.373	0.328
1 µM, coculture fibroblast: HMF	0.8	0.827	0.7055	0.62	0.586	0.554	0.51	0.483	0.464
1 µM, coculture fibroblast: HPFa	0.92	0.805	0.752	0.659	0.595	0.566	0.503	0.4675	0.4395
1 µM, coculture fibroblast: HUF	0.86	0.756	0.687	0.6025	0.56	0.527	0.487	0.447	0.426
1 µM, coculture fibroblast: Hs5	0.815	0.87	0.774	0.729	0.669	0.635	0.585	0.552	0.537
1 µM, coculture fibroblast: Hs27A	0.666	0.568	0.518	0.571	0.457	0.451	0.414	0.403	0.403
1 µM, coculture fibroblast: Hs343T	0.796	0.8126	0.718	0.655	0.613	0.583	0.534	0.511	0.493
1 µM, coculture fibroblast: WS1	0.833	0.759	0.68	0.595	0.533	0.479	0.434	0.398	0.381
10 µM, coculture fibroblast: C12385	0.851	0.736	0.664	0.599	0.536	0.499	0.479	0.447	0.434
10 µM, coculture fibroblast: H6013	0.767	0.653	0.602	0.585	0.535	0.542	0.522	0.514	0.469
10 µM, coculture fibroblast: H6019	0.796	0.721	0.673	0.622	0.61	0.601	0.577	0.565	0.555
10 µM, coculture fibroblast: H6076	0.786	0.799	0.708	0.613	0.587	0.569	0.543	0.52	0.526
10 µM, coculture fibroblast: H6231	0.828	0.865	0.734	0.579	0.605	0.566	0.526	0.499	0.485
10 µM, coculture fibroblast: HADF	0.762	0.665	0.611	0.586	0.513	0.504	0.475	0.455	0.421
10 µM, coculture fibroblast: HCFa	0.76	0.63	0.569	0.547	0.441	0.415	0.379	0.349	0.329
10 µM, coculture fibroblast: HCPF	0.8086	0.789	0.7	0.592	0.5786	0.53636	0.4916	0.4549	0.441
10 µM, coculture fibroblast: HHSteC	0.8095	0.708	0.648	0.581	0.516	0.498	0.455	0.433	0.377
10 µM, coculture fibroblast: HMF	0.797	0.827	0.729	0.596	0.606	0.562	0.5147	0.484	0.4531
10 µM, coculture fibroblast: HPFa	0.9108	0.779	0.692	0.589	0.526	0.499	0.462	0.442	0.424
10 µM, coculture fibroblast: HUF	0.882	0.773	0.692	0.618	0.58	0.566	0.53	0.527	0.519
10 µM, coculture fibroblast: Hs5	0.8251	0.887	0.784	0.693	0.624	0.584	0.5488	0.531	0.525
10 µM, coculture fibroblast: Hs27A	0.722	0.615	0.561	0.572	0.476	0.479	0.459	0.454	0.4452
10 µM, coculture fibroblast: Hs343T	0.802	0.814	0.7101	0.593	0.567	0.518	0.468	0.444	0.425
10 µM, coculture fibroblast: WS1	0.829	0.716	0.631	0.55	0.493	0.456	0.42	0.396	0.374
100 µM, coculture fibroblast: C12385	0.834	0.724	0.6063	0.507	0.431	0.384	0.348	0.32018	0.307
100 µM, coculture fibroblast: H6013	0.7719	0.668	0.597	0.575	0.499	0.497	0.475	0.471	0.431
100 µM, coculture fibroblast: H6019	0.82	0.7277	0.658	0.5755	0.539	0.526	0.51	0.49	0.47
100 µM, coculture fibroblast: H6076	0.7863	0.732	0.658	0.61	0.534	0.53	0.519	0.508	0.538
100 µM, coculture fibroblast: H6231	0.829	0.765	0.6675	0.633	0.5595	0.5465	0.513	0.487	0.48
100 µM, coculture fibroblast: HADF	0.744	0.6365	0.544	0.492	0.402	0.389	0.355	0.33	0.288
100 µM, coculture fibroblast: HCFa	0.77	0.625	0.537	0.478	0.368	0.344	0.306	0.292	0.26
100 µM, coculture fibroblast: HCPF	0.8252	0.783	0.686	0.62	0.565	0.526	0.486	0.456	0.442
100 µM, coculture fibroblast: HHSteC	0.788	0.671	0.571	0.493	0.403	0.379	0.337	0.317	0.262
100 µM, coculture fibroblast: HMF	0.791	0.769	0.654	0.58	0.515	0.484	0.451	0.425	0.41
100 µM, coculture fibroblast: HPFa	0.89	0.7597	0.663	0.555	0.472	0.447	0.414	0.3944	0.375
100 µM, coculture fibroblast: HUF	0.862	0.756	0.649	0.542	0.481	0.451	0.405	0.384	0.368
100 µM, coculture fibroblast: Hs5	0.868	0.807	0.755	0.742	0.654	0.63	0.618	0.608	0.6278
100 µM, coculture fibroblast: Hs27A	0.728	0.613	0.512	0.507	0.417	0.429	0.411	0.4	0.359
100 µM, coculture fibroblast: Hs343T	0.792	0.7704	0.68	0.604	0.539	0.513	0.483	0.468	0.464
100 µM, coculture fibroblast: WS1	0.812	0.689	0.611	0.504	0.43	0.383	0.347	0.321	0.305
